Source: PubChem BioAssay AID540276 (National Center for Advancing Translational Sciences (NCATS), 2011)
Where “and” joins values, the source holds several entries; their conditions need not be identical. Equal values may be shown once. In all, about 300,000 compounds went through this assay and about 5,400 (1.8%) were called active. The shares of active, inactive and inconclusive entries below differ from those in the screen. The call rests on the fitted dose curve; tested in HEK293 cells. A potency beside an inconclusive call is a rough fit, not a confirmed value.

Assay: qHTS for inhibitors of binding or entry into cells for Marburg Virus
Conditions: Marburg virus pseudotyped entry inhibition, cell reporter; series mostly up to 37.8 µM
Potency means the concentration at half of the fitted maximal effect.

**Q.** For `Cc1ccc(C(=O)C2=C(O)C(=O)N(Cc3cccnc3)C2c2ccc(Br)cc2)o1` (centres undefined), which Potency is on record?
**A.** inconclusive: 3.55 µM [inhibitor, partial curve, poor fit]

**Q.** Which Potency does the source give for `Cc1cc2n(n1)C(c1cc(C(C)(C)C)c(O)cc1O)Nc1ccccc1-2` (centres undefined) here?
**A.** inconclusive: 15.8 µM [inhibitor, single point]

**Q.** With `CC(=O)N(CN1C(=O)c2ccccc2C1=O)c1ccc2c(c1)oc1ccccc12` as the compound, how does the Potency read?
**A.** inactive

**Q.** With `CCOc1ccc(C(=O)N2CCC(c3nc4ccccc4o3)CC2)cc1` as the compound, how does the Potency read?
**A.** inactive

**Q.** Which Potency does the source give for `N=c1ccn(CC(=O)c2ccc(-c3ccccc3)cc2)cc1` here?
**A.** inconclusive: 35.5 µM [inhibitor, single point]

**Q.** Which Potency does the source give for `COc1ccc(C(=O)/C=C/c2ccc(OC3CSC3)cc2)cc1OC` here?
**A.** inconclusive: 11.2 µM [inhibitor, partial curve, poor fit]

**Q.** For `O=C(CNC(=O)OCc1ccccc1)Nc1ccc(Br)cc1C(=O)c1ccccc1Cl`, which Potency is on record?
**A.** inconclusive: 10 µM [inhibitor, partial curve, poor fit]

**Q.** For `O=C(c1cc(COc2ccc(F)cc2Cl)on1)N1CCN(C2CCCCC2)C(=O)C1`, which Potency is on record?
**A.** inconclusive: 22.4 µM [inhibitor, single point]

**Q.** For `Cc1cc(C)c(S(=O)(=O)Nc2ccc3c(c2)CCC3)c(C)c1`, which Potency is on record?
**A.** active: 7.31 µM

**Q.** Which Potency does the source give for `C=C1CC2(CC(c3ccccc3)OC(c3ccccc3)C2)OC1=O` (centres undefined) here?
**A.** inconclusive: 10 µM [inhibitor, partial curve, poor fit]

**Q.** For `CCn1c(SCC(=O)N2c3ccccc3CCc3ccccc32)nnc1-c1ccc(OC)cc1`, which Potency is on record?
**A.** inactive

**Q.** Which Potency does the source give for `COc1cc(OC)c(OC)cc1/C=C1\CCC/C(=C\c2cc(OC)c(OC)cc2OC)C1=O` here?
**A.** inconclusive: 14.1 µM [inhibitor, partial curve, poor fit]

**Q.** For `Cc1sc2ncnc(N(C)Cc3ccco3)c2c1C`, which Potency is on record?
**A.** inactive

**Q.** With `COc1ccc(CC(=O)Nc2cccc(-c3cn4ccccc4n3)c2)cc1` as the compound, how does the Potency read?
**A.** inconclusive: 35.5 µM [inhibitor, single point]

**Q.** With `CCOc1ccccc1NC(=O)c1ccc(Cl)c(NC(=O)CC(c2ccccc2)c2ccccc2)c1` as the compound, how does the Potency read?
**A.** active: 14.6 µM

**Q.** With `c1ccc2c(CSc3nnc(-c4ccncc4)o3)cccc2c1` as the compound, how does the Potency read?
**A.** inactive

**Q.** Which Potency does the source give for `COc1ccc(CC(=O)Nc2ccc(C(=O)NC(C)(C)C)cc2)cc1OC` here?
**A.** inconclusive: 6.31 µM [inhibitor, single point]

**Q.** For `CC(C)c1ccc(NC(=O)CN2C(=O)NC(C)(C3CC3)C2=O)cc1` (centres undefined), which Potency is on record?
**A.** inactive

**Q.** For `CCN(CC)S(=O)(=O)c1ccc(N2CCN(S(=O)(=O)c3ccccc3)CC2)nc1`, which Potency is on record?
**A.** inactive

**Q.** Which Potency does the source give for `O=S(=O)(c1ccc(F)cc1)N1CCN(C(=S)NCc2ccco2)CC1` here?
**A.** inconclusive: 2.91 µM [inhibitor, partial curve, poor fit]

**Q.** Which Potency does the source give for `Cc1cc2ccccn2c1C(=O)c1cccc([N+](=O)[O-])c1` here?
**A.** inconclusive: 28.2 µM [inhibitor, single point]

**Q.** Which Potency does the source give for `Nc1ccc(-c2cc(N)n(-c3ccccc3)n2)cc1` here?
**A.** inconclusive: 1.12 µM [inhibitor, single point]

**Q.** Which Potency does the source give for `CN1C(C(=O)c2ccccc2)=C(OC(=O)c2ccc(Br)cc2)c2ccccc2S1(=O)=O` here?
**A.** inactive

**Q.** With `c1ccc(COc2ccc(OCCCN3CCCCC3)cc2)cc1` as the compound, how does the Potency read?
**A.** inconclusive: 35.5 µM [inhibitor, single point]

**Q.** For `Cc1oc2c(c(C)cc3oc(=O)c(CC(=O)NCCc4ccccc4)c(C)c32)c1C`, which Potency is on record?
**A.** inconclusive: 17.8 µM [activator, single point]

**Q.** Which Potency does the source give for `O=C(Cn1cc(C(F)(F)F)cc(Cl)c1=O)Nc1ccc(N2CCOCC2)cc1` here?
**A.** inactive

**Q.** Which Potency does the source give for `Cc1cc2nc(-c3ccc4c(c3)CCC4)ccn2n1` here?
**A.** inconclusive: 15.8 µM [activator, single point]

**Q.** For `Cc1ccc(CSCC(=O)N2CCN(c3ccccc3)CC2)cc1`, which Potency is on record?
**A.** inconclusive: 6.31 µM [activator, single point]

**Q.** With `C/C(=N\NC(=O)CNc1ccc(F)cc1)c1cc2ccccc2o1` as the compound, how does the Potency read?
**A.** inconclusive: 0.891 µM [inhibitor, partial curve, poor fit]

**Q.** Which Potency does the source give for `Cc1c(-c2ccc(Cl)cc2)[n+](=O)c2c(n1[O-])CCCC2` here?
**A.** inconclusive: 14.1 µM [activator, single point]

**Q.** Which Potency does the source give for `Cc1[nH]c2c(Cl)cccc2c1CCNC(=O)C1CCCCC1C(=O)OCC(F)(F)F` (centres undefined) here?
**A.** inconclusive: 1.26 µM [inhibitor, single point]

**Q.** For `c1ccc(NCc2ccccn2)cc1`, which Potency is on record?
**A.** inactive

**Q.** For `COc1ccc(NS(=O)(=O)c2cc(NC(=O)[C@H](C)NC(N)=O)ccc2N2CCCC2)cc1`, which Potency is on record?
**A.** inactive

**Q.** Which Potency does the source give for `CC(C)n1cnnc1SCC(=O)Nc1ccc(Br)cc1F` here?
**A.** inconclusive: 5.62 µM [activator, single point]

**Q.** Which Potency does the source give for `CCCCn1c(=O)[nH]c(=O)c2c1nc(CN(C)Cc1cccc(OC)c1OC)n2CCC` here?
**A.** inconclusive: 10 µM [inhibitor, partial curve]

**Q.** Which Potency does the source give for `Cc1nc(N)nc(N)c1CCCc1ccc(Cl)c(Cl)c1` here?
**A.** inconclusive: 7.08 µM [inhibitor, full curve, poor fit]

**Q.** Which Potency does the source give for `CC1CN(C(=O)COc2coc(CN3CCc4ccccc4C3)cc2=O)CC(C)O1` (centres undefined) here?
**A.** inactive

**Q.** Which Potency does the source give for `O=C(NCCc1ccccc1)c1cc(-c2ccc(Cl)cc2)on1` here?
**A.** inactive

**Q.** For `CCC(=O)Nc1nc2ccc(NC(=O)COc3ccccc3)cc2s1`, which Potency is on record?
**A.** inconclusive: 1.12 µM [activator, partial curve, poor fit]

**Q.** Which Potency does the source give for `CCOC(=O)CSc1nc2ccccc2n2cnnc12` here?
**A.** inactive

**Q.** Which Potency does the source give for `COc1cccc(C(=O)Nc2ccc(N3CCCC3)cc2)c1` here?
**A.** inconclusive: 3.16 µM [inhibitor, partial curve, poor fit]

**Q.** Which Potency does the source give for `Cn1nc(C(F)(F)F)c2cc(C(=O)O)sc21` here?
**A.** inconclusive: 7.94 µM [activator, partial curve, poor fit]

**Q.** For `CCOC(=O)c1c(NC(=O)CN2CCCc3ccccc32)sc(C)c1C`, which Potency is on record?
**A.** inconclusive: 11.2 µM [inhibitor, partial curve, poor fit]

**Q.** Which Potency does the source give for `CCN(CC)S(=O)(=O)c1ccc(NC(=O)CSc2nnc(-c3cccc(OC)c3)n2C)cc1` here?
**A.** inconclusive: 20.6 µM [inhibitor, single point]

**Q.** Which Potency does the source give for `O=C(CN1C2=NCCCN2c2ccccc21)c1cccc(Br)c1` here?
**A.** inconclusive: 14.6 µM [inhibitor, partial curve, poor fit]

**Q.** For `c1ccc(-c2nnsc2-c2ncc[nH]2)cc1`, which Potency is on record?
**A.** inconclusive: 7.94 µM [activator, partial curve, poor fit]

**Q.** With `CCC(=O)NC(c1ccccc1)c1c(OC(C)=O)ccc2ccccc12` (centres undefined) as the compound, how does the Potency read?
**A.** inactive

**Q.** Which Potency does the source give for `Cc1cccc2cc(C#N)c(SCC(=O)N3CC(=O)Nc4ccccc43)nc12` here?
**A.** inactive and inconclusive: 1.12 µM [inhibitor, full curve, poor fit]

**Q.** For `Cc1ccc(Nc2ccc(C(N)=O)cc2[N+](=O)[O-])cc1`, which Potency is on record?
**A.** inactive

**Q.** For `N=c1c2ccccc2nnn1-c1ccc(C(F)(F)F)cc1`, which Potency is on record?
**A.** inactive

**Q.** Which Potency does the source give for `COc1ccccc1C(=O)NC(=O)COC(=O)CCOc1ccc(C)cc1` here?
**A.** inconclusive: 3.16 µM [inhibitor, partial curve, poor fit]

**Q.** With `Cc1sc2ncn(CC(=O)N(C)c3ccc(Br)cc3)c(=O)c2c1S(=O)(=O)N1CCC(C)CC1` as the compound, how does the Potency read?
**A.** inconclusive: 6.31 µM [inhibitor, single point]

**Q.** With `CCOC(=O)Nc1ccc(NCc2ccc(F)cc2)nc1N` as the compound, how does the Potency read?
**A.** inconclusive: 6.31 µM [inhibitor, full curve]

**Q.** For `COc1ccc(C(=O)NC(C)Cc2cnccn2)cc1OC1CCN(C(C)C)CC1` (centres undefined), which Potency is on record?
**A.** inactive

**Q.** Which Potency does the source give for `Cc1ccc(C2CC(=O)c3cnn(-c4nc(C)cc(C)n4)c3C2)cc1` (centres undefined) here?
**A.** inconclusive: 15.8 µM [inhibitor, single point]

**Q.** With `COc1ccc(NC(=O)Nc2cc(C)ccc2OC)cc1` as the compound, how does the Potency read?
**A.** inactive

**Q.** Which Potency does the source give for `O=C(CN1C2CCCC1CC(NC(=O)C1CCCCC1)C2)Nc1ccccc1` (centres undefined) here?
**A.** inconclusive: 35.5 µM [inhibitor, single point]

**Q.** For `CN(C)/C=C/C(=O)/C=C/c1ccc(Cl)cc1Cl`, which Potency is on record?
**A.** inconclusive: 14.1 µM [inhibitor, partial curve, poor fit]

**Q.** Which Potency does the source give for `Cc1ccc2ncnc(Nc3ccc(C)c(C)c3)c2c1` here?
**A.** inconclusive: 14.6 µM [inhibitor, partial curve, poor fit]

**Q.** With `CCc1ccccc1NC(=O)c1ccc2c(c1)N(Cc1cccc(Cl)c1)C(=O)c1ccccc1S2(=O)=O` as the compound, how does the Potency read?
**A.** inconclusive: 11.2 µM [inhibitor, partial curve, poor fit]

**Q.** Which Potency does the source give for `O=C(Nc1ccc(-c2nnc(-c3ccco3)o2)cc1)C(c1ccccc1)c1ccccc1` here?
**A.** inactive

**Q.** For `Cc1ccc(S(=O)(=O)Nc2cccc(Cl)c2)cc1NC(=O)C1CC1`, which Potency is on record?
**A.** inactive

**Q.** Which Potency does the source give for `O=S1(=O)CCC(N=Cc2ccc(-c3ccc(Cl)cc3)o2)C1` (centres undefined) here?
**A.** inconclusive: 35.5 µM [inhibitor, single point]

**Q.** With `Cc1nc(SCC(=O)OCc2ccccc2)c(C#N)c(-c2ccccc2)c1C(=O)Nc1ccccc1` as the compound, how does the Potency read?
**A.** inconclusive: 11.6 µM [inhibitor, partial curve, poor fit]

**Q.** Which Potency does the source give for `CC(OC(=O)c1snc(C(=O)NC2CCCCC2)c1N)C(=O)NC(C)(C)C` (centres undefined) here?
**A.** inconclusive: 12.6 µM [inhibitor, partial curve]

**Q.** For `CCN(CC)S(=O)(=O)c1ccc2nc(CCl)[nH]c2c1`, which Potency is on record?
**A.** inactive

**Q.** For `Cc1ccc2oc(C(=O)NCCC3CCCCO3)c(C)c2c1` (centres undefined), which Potency is on record?
**A.** inconclusive: 11.2 µM [inhibitor, single point]

**Q.** Which Potency does the source give for `COC(=O)C1C(c2ccccc2)NC(=O)NC1(O)C(F)(F)Cl` (centres undefined) here?
**A.** inconclusive: 35.5 µM [inhibitor, single point]

**Q.** With `O=C(COC(=O)c1cncc(Br)c1)NCc1ccc2c(c1)OCO2` as the compound, how does the Potency read?
**A.** inconclusive: 12.6 µM [activator, single point]
